PubChem BioAssay AID493246 | Drosophila RNAi Screening Center, 2011
The screen tested about 21,000 reagents; shown is a random part of those with a known target gene and a result. Of all reagents, 429 (2%) were called active. 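Values are raw and not normalised between plates; calls rest on per-plate z-scores that were not deposited.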 Names joined by + are all predicted targets of the reagent. Not stated in the record: the amount of reagent, the time to read-out.

Test: 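Identify essential fly genes by loss of cell viability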 (primary screen)
Cells: Drosophila Kc and S2R+ cells
Reagents: long dsRNA against Drosophila genes
Measured: 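Raw, unnormalised count of remaining cells in each well; per-plate z-scores of cell number underlie the calls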
Direction: Kc cell number and S2R+ cell number: higher = more cells remaining
Call rule: 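Active when the per-plate z-score of cell number is 3 or more in the direction of fewer cells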

Gene	PubChem SID	Kc cell number, rep 1	Kc cell number, rep 2	S2R+ cell number, rep 1	S2R+ cell number, rep 2	Call
CG7546	SID104188677	1.47e6	1.54e6	1.16e6	1.33e6	inactive
CG7546	SID104190663	1.24e6	1.32e6	1.00e6	1.14e6	inactive
tin (tinman)	SID104196875	1.46e6	1.67e6	1.21e6	1.39e6	inactive
CG3857	SID104198334	5.44e5		7.75e5		inactive
Pal1 + Pdrg1	SID104186379	1.61e6	1.61e6	1.31e6	1.34e6	inactive
CG17267	SID104194999	1.16e6	1.24e6	1.01e6	1.11e6	inactive
CG7191	SID104182814	1.61e6	1.68e6	1.21e6	1.41e6	inactive
Akt (Akt kinase)	SID104193900	1.46e6	1.51e6	1.17e6	1.21e6	inactive
Sys1 (Sys1 golgi trafficking protein)	SID104194164	1.33e6	1.50e6	1.17e6	1.31e6	inactive
CG11655	SID104199205	1.48e6	1.51e6	8.67e5	1.01e6	inactive
ttm3 (tiny tim 3)	SID104183528	1.63e6	1.85e6	1.40e6	3.32e5	inactive
Prosbeta2R1 (Proteasome beta2 subunit-related 1)	SID104197946	1.46e6	1.44e6	1.03e6	1.14e6	inactive

Continued; the last 3 above are carried over.
Gene	PubChem SID	Kc cell number, rep 1	Kc cell number, rep 2	S2R+ cell number, rep 1	S2R+ cell number, rep 2	Call
CG11655	SID104199205	1.48e6	1.51e6	8.67e5	1.01e6	inactive
ttm3 (tiny tim 3)	SID104183528	1.63e6	1.85e6	1.40e6	3.32e5	inactive
Prosbeta2R1 (Proteasome beta2 subunit-related 1)	SID104197946	1.46e6	1.44e6	1.03e6	1.14e6	inactive
CG31917 + Tfb5	SID104182154	1.82e6	1.73e6	1.12e6	1.27e6	inactive
CG31917 + Tfb5	SID104182155	1.87e6	1.93e6	1.26e6	1.46e6	inactive
Boot (Bootlegger)	SID104186204	1.58e6	1.60e6	1.36e6	1.37e6	inactive
Cmtr1 (Cap methyltransferase 1)	SID104198192	1.65e6	1.65e6	1.03e6	1.14e6	inactive
CR15280 (pseudo)	SID104181745	1.47e6	1.57e6	1.24e6	1.38e6	inactive
CG34376	SID104194487	1.62e6	1.69e6	8.45e5	9.14e5	inactive
CG34376	SID104194488	1.29e6	1.68e6	9.50e5	1.04e6	inactive
CG34376	SID104194493	1.44e6	1.65e6	8.23e5	8.98e5	inactive
CG7335	SID104190608	1.58e6	1.48e6	1.40e6	1.42e6	inactive
ND-42 (NADH dehydrogenase (ubiquinone) 42 kDa subunit)	SID104196546	1.39e6	1.48e6	7.89e5	8.37e5	inactive
L (retired record)	SID104185758	1.49e6	1.46e6	1.15e6	1.18e6	inactive
L (retired record)	SID104185759	1.49e6	1.48e6	9.63e5	9.75e5	inactive
